Assay results published in publication PMC11514477.

T1: Mcm4 (subunit of the Mcm DNA helicase complex) (mouse (endogenous in C2C12)) (UniProt P49717)
T1 sequence: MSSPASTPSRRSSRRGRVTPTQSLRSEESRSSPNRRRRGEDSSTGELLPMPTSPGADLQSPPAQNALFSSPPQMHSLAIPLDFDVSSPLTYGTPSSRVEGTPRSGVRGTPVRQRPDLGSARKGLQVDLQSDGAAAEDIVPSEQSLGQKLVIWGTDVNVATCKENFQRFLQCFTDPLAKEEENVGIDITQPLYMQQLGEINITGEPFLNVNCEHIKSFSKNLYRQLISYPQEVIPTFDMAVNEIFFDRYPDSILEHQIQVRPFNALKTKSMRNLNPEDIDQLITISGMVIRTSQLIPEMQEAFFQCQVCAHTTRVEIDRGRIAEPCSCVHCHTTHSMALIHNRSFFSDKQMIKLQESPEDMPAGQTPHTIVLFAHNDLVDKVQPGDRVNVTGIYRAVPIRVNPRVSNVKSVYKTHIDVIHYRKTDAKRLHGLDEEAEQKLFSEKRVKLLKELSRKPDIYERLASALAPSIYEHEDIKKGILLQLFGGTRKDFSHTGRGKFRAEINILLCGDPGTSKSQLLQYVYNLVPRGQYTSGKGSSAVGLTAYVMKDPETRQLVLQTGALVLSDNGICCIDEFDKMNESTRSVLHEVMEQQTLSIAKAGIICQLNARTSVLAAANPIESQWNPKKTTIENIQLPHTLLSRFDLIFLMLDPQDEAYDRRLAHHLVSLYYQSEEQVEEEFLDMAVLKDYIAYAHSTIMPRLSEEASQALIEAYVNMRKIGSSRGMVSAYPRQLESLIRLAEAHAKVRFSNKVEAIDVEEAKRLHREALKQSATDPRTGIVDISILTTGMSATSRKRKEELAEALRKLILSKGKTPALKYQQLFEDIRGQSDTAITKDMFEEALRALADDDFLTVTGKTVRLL


Legend:
[1] = target: T1, Mcm4 (subunit of the Mcm DNA helicase complex) (mouse (endogenous in C2C12)); test: co-IP; lysates of C2C12 cells transfected with macroH2A-GFP vectors and synchronized in G1/S; endogenous Mcm4 precipitated with anti-Mcm4 on Protein G agarose beads, 2 h; anti-MIN antibody as negative control
[2] = target: macroH2A1.1-GFP; test: co-IP; lysates of C2C12 cells transfected with macroH2A-GFP vectors, synchronized in G1/early S by double thymidine arrest, 48 h after transfection; lysis buffer 20 mM Tris-HCl pH 8, 150 mM NaCl, 0.5 mM EDTA, 0.5% NP-40; GFP-binder (nanobody) beads, 4°C, 90 min; western blot for GFP and Mcm …
[3] = target: macroH2A1.1-F192V (GFP-tagged); test: as above

Row | Molecule | binding [1] | binding [2] | binding [3]
1 | Mcm3 (subunit of the Mcm DNA helicase complex) (protein, UniProt P25206 1-812) MAGTVVLDDVELREAQRDYLDFLDDEEDQGIYQNKVRELISDNQYRLIVSVNDLRRKNEKRANRLLNNAFEELVAFQRALKDFVASIDATYAKQYEEFYIGLEGSFGSKHVSPRTLTSCFLSCVVCVEGIVTKCSLVRPKVVRSVHYCPATKKTIERRYSDLTTLVAFPSSSVYPTKDEENNPLETEYGLSVYKDHQTITIQEMPEKAPAGQLPRSVDVILDDDLVDKVKPGDRIQVVGTYRCLPGKKGCYTSGTFRTVLIACNVKQMSKDIQPAFSADDIAKIKKFSKTRSKDVFEQLARSLAPSIHGHDYVKKAILCLLLGGVERELENGSHIRGDINILLIGDPSVAKSQLLRYVLCTAPRAIPTTGRGSSGVGLTAAVTTDQETGERRLEAGAMVLADRGVVCIDEFDKMSDMDRTAIHEVMEQGRVTIAKAGIHARLNARCSVLAAANPVYGRYDQYKTPMENIGLQDSLLSRFDLLFIMLDQMDPEQDREISDHVLRMHQYRAPGEQDGDALPLGSSVDILATDDPDFTQDDQQDTRIYEKHDSLLHGTKKKKEKMVSAAFMKKYIHVAKIIKPTLTQESAAYIAEEYSRLRSQDSMSSDTARTSPVTARTLETLIRLATAHAKARMSKTVDLQDAEEAVELVQYAYFKKVLEKEKKRKKASEDESDLEDEEEKSQEDTEQKRKRRKTHAKDGESYDPYDFSEAETQMPQVHTPKTDDSQEKTDDSQETQDSQKVELSEPRLKAFKAALLEVFQEAHEQSVGMLHLTESINRNREEPFSSEEIQACLSRMQDDNQVMVSEGIVFLI | – | binds | binds weakly
2 | Mcm4 (subunit of the Mcm DNA helicase complex) (protein, UniProt P49717 1-862) MSSPASTPSRRSSRRGRVTPTQSLRSEESRSSPNRRRRGEDSSTGELLPMPTSPGADLQSPPAQNALFSSPPQMHSLAIPLDFDVSSPLTYGTPSSRVEGTPRSGVRGTPVRQRPDLGSARKGLQVDLQSDGAAAEDIVPSEQSLGQKLVIWGTDVNVATCKENFQRFLQCFTDPLAKEEENVGIDITQPLYMQQLGEINITGEPFLNVNCEHIKSFSKNLYRQLISYPQEVIPTFDMAVNEIFFDRYPDSILEHQIQVRPFNALKTKSMRNLNPEDIDQLITISGMVIRTSQLIPEMQEAFFQCQVCAHTTRVEIDRGRIAEPCSCVHCHTTHSMALIHNRSFFSDKQMIKLQESPEDMPAGQTPHTIVLFAHNDLVDKVQPGDRVNVTGIYRAVPIRVNPRVSNVKSVYKTHIDVIHYRKTDAKRLHGLDEEAEQKLFSEKRVKLLKELSRKPDIYERLASALAPSIYEHEDIKKGILLQLFGGTRKDFSHTGRGKFRAEINILLCGDPGTSKSQLLQYVYNLVPRGQYTSGKGSSAVGLTAYVMKDPETRQLVLQTGALVLSDNGICCIDEFDKMNESTRSVLHEVMEQQTLSIAKAGIICQLNARTSVLAAANPIESQWNPKKTTIENIQLPHTLLSRFDLIFLMLDPQDEAYDRRLAHHLVSLYYQSEEQVEEEFLDMAVLKDYIAYAHSTIMPRLSEEASQALIEAYVNMRKIGSSRGMVSAYPRQLESLIRLAEAHAKVRFSNKVEAIDVEEAKRLHREALKQSATDPRTGIVDISILTTGMSATSRKRKEELAEALRKLILSKGKTPALKYQQLFEDIRGQSDTAITKDMFEEALRALADDDFLTVTGKTVRLL | – | binds | –

Now from value to molecule:

Row | binding [1] | binding [2] | binding [3] | Molecule
3 | binds | – | – | macroH2A1.1-GFP
4 | – | binds | – | Mcm5 (subunit of the Mcm DNA helicase complex) (protein, UniProt P49718 1-734) MSGFDDPGIFYSDSFGGDPGAEEGQARKSQLQRRFKEFLRQYRVGTDRTGFTFKYRDELKRHYNLGEYWIEVEMEDLASFDEELADHLHKQPAEHLQLLEEAAKEVADEVTRPRPAGDELLQDIQVMLKSDASPSSIRILKSDMMSHLVKIPGIIISASAVRAKATRISIQCRSCHNTLTNIAMRPGLEGYALPRKCNMDQAGRPKCPLDPYFIMPDKCKCVDFQTLKLQELPDAVPHGEMPRHMQLYCDRYLCDKVVPGNRVTIMGIYSIKKFGLNPSKGRDRVGVGIRSSYIRVLGIQVDTDGSGRSFAGSVSPQEEEEFRRLAALPNIYELISKSISPSIFGGMDMKKAIACLLFGGSRKRLPDGLTRRGDINLLMLGDPGTAKSQLLKFVEKCSPIGVYTSGKGSSAAGLTASVIRDPSSRNFIMEGGAMVLADGGVVCIDEFDKMREDDRVAIHEAMEQQTISIAKAGITTTLNSRCSVLAAANSVFGRWDETKGEDNIDFMPTILSRFDMIFIVKDEHNEERDMMLAKHVMTLHVSALTQTQAVEGEIDLAKMKKFIAYCRARCGPRLSAEAAEKLKNRYIIMRSGARQHERDSDRRSSIPITVRQLEAIVRIAEALSKMKLQPFATEADVEEALRLFQVSTLDAALSGNLSGVEGFTTQEDQEMLSRIEKQLKRRFAIGSQVSEHSIVQDFTKQKYPEHAIRKVLQLMLRRGEIQHRMQRKVLYRLK

These are yes or no findings as the source states them, for the method shown. In cells and extracts the contact can be indirect. Binding can be weak; no strength is given.
